37 compounds from patent publication US8349851B2, “JAK kinase modulating compounds and methods of use thereof” (Ambit Biosciences Corp., priority 2009, dated 2013) can be followed below.

The series deals with 321 distinct kinases. In words: Kinase selectivity score from competition binding panel. To be noted: kinases with inhibition of 90% or greater divided by 321 distinct kinases tested.
As for `Cc1cc(Nc2nc(C(F)(F)c3ccc(F)cc3)nc3ccccc23)n[nH]1` [Example 8, 2-(difluoro(4-fluorophenyl)methyl)-N-(5-methyl-1H-pyrazol-3-yl)quinazolin-4-amine], the “S Score (at 10 μM)” value was “A (A ≦ 0.3)”. In the case of `Fc1ccc(C(F)(F)c2nc(Nc3cc[nH]n3)c3ccccc3n2)cc1` [Example 9, 2-(difluoro(4-fluorophenyl)methyl)-N-(1H-pyrazol-3-yl)quinazolin-4-amine] it was “A (A ≦ 0.3)”.

Regarding `Fc1ccc(C(F)(F)c2nc(Nc3cc(C4CC4)[nH]n3)c3ccccc3n2)cc1` [Example 10, N-(5-cyclopropyl-1H-pyrazol-3-yl)-2-(difluoro(4-fluorophenyl)methyl)quinazolin-4-amine], the “S Score (at 10 μM)” value is listed as “D (D > 0.5)”. In the case of `Cc1cc(Nc2nc(C(=O)c3ccc(F)cc3)nc3cc(C(F)(F)F)ccc23)n[nH]1` [Example 17, (4-fluorophenyl)(4-(5-methyl-1H-pyrazol-3-ylamino)-7-(trifluoromethyl)quinazolin-2-yl)methanone], the “S Score (at 10 μM)” value is “A (A ≦ 0.3)”. In the case of `Cc1cc(Nc2nc(C(=O)c3ccc(F)cc3)nc3cc(F)ccc23)n[nH]1` [Example 19, (7-fluoro-4-(5-methyl-1H-pyrazol-3-ylamino)quinazolin-2-yl)(4-fluorophenyl)methanone] it was “A (A ≦ 0.3)”; in that of `Cc1cc(Nc2nc(C(F)(F)c3ccc(F)cc3)nc3cc(F)ccc23)n[nH]1` [Example 20, 2-(difluoro(4-fluorophenyl)methyl)-7-fluoro-N-(5-methyl-1H-pyrazol-3-yl)quinazolin-4-amine], “A (A ≦ 0.3)”.

Turning to `Fc1ccc(C(F)(F)c2nc(Nc3cc[nH]n3)c3ccc(F)cc3n2)cc1` [Example 21, 2-(difluoro(4-fluorophenyl)methyl)-7-fluoro-N-(1H-pyrazol-3-yl)quinazolin-4-amine], the “S Score (at 10 μM)” value is recorded as “A (A ≦ 0.3)”.

On to `O=C(c1ccc(F)cc1)c1nc(Nc2cc[nH]n2)c2ccc(I)cc2n1` [Example 22, (4-(1H-pyrazol-3-ylamino)-7-iodoquinazolin-2-yl)(4-fluorophenyl)methanone], for which the “S Score (at 10 μM)” value is recorded as “A (A ≦ 0.3)”. In the case of `Cc1ccc2c(Nc3cc(C)[nH]n3)nc(C(=O)c3ccc(F)cc3)nc2c1` [Example 24, (4-fluorophenyl)(7-methyl-4-(5-methyl-1H-pyrazol-3-ylamino)quinazolin-2-yl)methanone], the “S Score (at 10 μM)” value was “A (A ≦ 0.3)”. With `Cc1ccc2c(Nc3cc(C)[nH]n3)nc(C(F)(F)c3ccc(F)cc3)nc2c1` [Example 26, 2-(difluoro(4-fluorophenyl)methyl)-7-methyl-N-(5-methyl-1H-pyrazol-3-yl)quinazolin-4-amine] the entry was “A (A ≦ 0.3)”; with `Cc1ccc2c(Nc3cc[nH]n3)nc(C(F)(F)c3ccc(F)cc3)nc2c1` [Example 27, 2-(difluoro(4-fluorophenyl)methyl)-7-methyl-N-(1H-pyrazol-3-yl)quinazolin-4-amine], “A (A ≦ 0.3)”; with `COc1ccc2c(Nc3cc[nH]n3)nc(C(=O)c3ccc(F)cc3)nc2c1` [Example 28, (4-(1H-pyrazol-3-ylamino)-7-methoxyquinazolin-2-yl)(4-fluorophenyl)methanone], “A (A ≦ 0.3)”. With `COc1ccc2c(Nc3cc(C)[nH]n3)nc(C(=O)c3ccc(F)cc3)nc2c1` [Example 30, (4-fluorophenyl)(7-methoxy-4-(5-methyl-1H-pyrazol-3-ylamino)quinazolin-2-yl)methanone] the entry was “A (A ≦ 0.3)”. With `COc1ccc2c(Nc3cc(C)[nH]n3)nc(C(F)(F)c3ccc(F)cc3)nc2c1` [Example 32, 2-(difluoro(4-fluorophenyl)methyl)-7-methoxy-N-(5-methyl-1H-pyrazol-3-yl)quinazolin-4-amine] the entry was “A (A ≦ 0.3)”; with `COc1ccc2c(Nc3cc[nH]n3)nc(C(F)(F)c3ccc(F)cc3)nc2c1` [Example 33, 2-(difluoro(4-fluorophenyl)methyl)-7-methoxy-N-(1H-pyrazol-3-yl)quinazolin-4-amine], “A (A ≦ 0.3)”; with `Cc1cc(Nc2nc(C(F)(F)c3ccc(F)cc3)nc3c(F)cccc23)n[nH]1` [Example 34, 2-(difluoro(4-fluorophenyl)methyl)-8-fluoro-N-(5-methyl-1H-pyrazol-3-yl)quinazolin-4-amine], “B (0.3 < B ≦ 0.4)”.

With `COc1cccc2c(Nc3cc[nH]n3)nc(C(=O)c3ccc(F)cc3)nc12` [Example 35, (4-(1H-pyrazol-3-ylamino)-8-methoxyquinazolin-2-yl)(4-fluorophenyl)methanone], the “S Score (at 10 μM)” value is given as “A (A ≦ 0.3)”. In the case of `Cc1cc(Nc2nc(C(=O)c3ccc(F)cc3)nc3cc(O)ccc23)n[nH]1` [Example 37, (4-fluorophenyl)(7-hydroxy-4-(5-methyl-1H-pyrazol-3-ylamino)quinazolin-2-yl)methanone] it was “A (A ≦ 0.3)”; in that of `Cc1cc(Nc2nc(C(O)c3ccc(F)cc3)nc3cc(OC4CCNCC4)ccc23)n[nH]1` (stereo not shown) [Example 41, (4-fluorophenyl)(4-(5-methyl-1H-pyrazol-3-ylamino)-7-(piperidin-4-yloxy)quinazolin-2-yl)methanol], “D (D > 0.5)”. On to `Cc1cc(Nc2nc(C(F)(F)c3ccc(F)cc3)nc3cc(CO)ccc23)n[nH]1` [Example 49, (2-(difluoro(4-fluorophenyl)methyl)-4-(5-methyl-1H-pyrazol-3-ylamino)quinazolin-7-yl)methanol], for which the “S Score (at 10 μM)” value was “D (D > 0.5)”. In the case of `Cc1cc(Nc2nc(C(F)(F)c3ccc(F)cc3)nc3cc(CS(C)(=O)=O)ccc23)n[nH]1` [Example 50, 2-(difluoro(4-fluorophenyl)methyl)-N-(5-methyl-1H-pyrazol-3-yl)-7-(methylsulfonylmethyl)quinazolin-4-amine] it was “C (0.4 < C ≦ 0.5)”; in that of `CCOCc1ccc2c(Nc3cc(C)[nH]n3)nc(C(F)(F)c3ccc(F)cc3)nc2c1` [Example 51, 2-(Difluoro(4-fluorophenyl)methyl)-7-(ethoxymethyl)-N-(5-methyl-1H-pyrazol-3-yl)quinazolin-4-amine], “B (0.3 < B ≦ 0.4)”.

With `Cc1cc(Nc2nc(C(=O)c3ccc(F)cc3)nc3ccc(F)cc23)n[nH]1` [Example 53, (6-fluoro-4-(5-methyl-1H-pyrazol-3-ylamino)quinazolin-2-yl)(4-fluorophenyl)methanone], the “S Score (at 10 μM)” value is on record as “A (A ≦ 0.3)”.

Consider `Cc1cc(Nc2nc(C(=O)c3ccc(F)cc3)nc3cc(Br)ccc23)n[nH]1` [Example 56, (7-bromo-4-(5-methyl-1H-pyrazol-3-ylamino)quinazolin-2-yl)(4-fluorophenyl)methanone], for which the “S Score (at 10 μM)” value was “A (A ≦ 0.3)”. In the case of `Cc1cc(Nc2nc(C(O)c3ccc(F)cc3)nc3cc(Br)ccc23)n[nH]1` (stereo not shown) [Example 57, (7-bromo-4-(5-methyl-1H-pyrazol-3-ylamino)quinazolin-2-yl)(4-fluorophenyl)methanol] it was “A (A ≦ 0.3)”; in that of `Cc1cc(Nc2nc(C3(c4ccc(F)cc4)OCCO3)nc3ccccc23)n[nH]1` [Example 59, 2-(2-(4-fluorophenyl)-1,3-dioxolan-2-yl)-N-(5-methyl-1H-pyrazol-3-yl)quinazolin-4-amine], “B (0.3 < B ≦ 0.4)”; in that of `Cc1cc(Nc2nc(C(=O)c3ccc(F)cc3)nc3c(F)cccc23)n[nH]1` [Example 60, (8-fluoro-4-(5-methyl-1H-pyrazol-3-ylamino)quinazolin-2-yl)(4-fluorophenyl)methanone], “A (A ≦ 0.3)”.

In the case of `COc1ccccc1C(=O)c1nc(Nc2cc(C)[nH]n2)c2ccccc2n1` [Example 62, (2-methoxyphenyl)(4-(5-methyl-1H-pyrazol-3-ylamino)quinazolin-2-yl)methanone], the “S Score (at 10 μM)” value is listed as “A (A ≦ 0.3)”. In the case of `Cc1cc(Nc2nc(C(O)c3cccc(F)c3)nc3ccccc23)n[nH]1` (stereo not shown) [Example 64, (3-fluorophenyl)(4-(5-methyl-1H-pyrazol-3-ylamino)quinazolin-2-yl)methanol], the “S Score (at 10 μM)” value is on record as “A (A ≦ 0.3)”.

For the compound `Cc1cc(Nc2nc(C(NC=O)c3ccc(F)cc3)nc3ccccc23)n[nH]1` (stereo not shown) [Example 65, N-((4-fluorophenyl)(4-(5-methyl-1H-pyrazol-3-ylamino)quinazolin-2-yl)methyl)formamide], the “S Score (at 10 μM)” value was “A (A ≦ 0.3)”.

Turning to `Cc1cc(Nc2nc(C(O)c3ccc(F)c(Cl)c3)nc3ccccc23)n[nH]1` (stereo not shown) [Example 67, (3-chloro-4-fluorophenyl)(4-(5-methyl-1H-pyrazol-3-ylamino)quinazolin-2-yl)methanol], the “S Score (at 10 μM)” value is on record as “B (0.3 < B ≦ 0.4)”. With `Cc1cc(Nc2nc(C(CC#N)c3ccc(F)cc3)nc3ccccc23)n[nH]1` (stereo not shown) [Example 68, 3-(4-fluorophenyl)-3-(4-(5-methyl-1H-pyrazol-3-ylamino)quinazolin-2-yl)propanenitrile] the entry was “A (A ≦ 0.3)”; with `Cc1cc(Nc2nc(C(NC3CC3)c3ccc(F)cc3)nc3ccccc23)n[nH]1` (stereo not shown) [Example 69, 2-((cyclopropylamino)(4-fluorophenyl)methyl)-N-(5-methyl-1H-pyrazol-3-yl)quinazolin-4-amine], “A (A ≦ 0.3)”; with `Cc1cc(Nc2nc(C(CS(C)(=O)=O)c3ccc(F)cc3)nc3ccccc23)n[nH]1` (stereo not shown) [Example 70, 2-(1-(4-fluorophenyl)-2-(methylsulfonyl)ethyl)-N-(5-methyl-1H-pyrazol-3-yl)quinazolin-4-amine], “A (A ≦ 0.3)”. In the case of `Cc1cc(Nc2nc(C(CCN)c3ccc(F)cc3)nc3ccccc23)n[nH]1` (stereo not shown) [Example 71, 2-(3-amino-1-(4-fluorophenyl)propyl)-N-(5-methyl-1H-pyrazol-3-yl)quinazolin-4-amine] it was “A (A ≦ 0.3)”. In the case of `Cc1cc(Nc2nc(C(O)(c3ccc(F)cc3)c3ccc(F)cc3)nc3ccccc23)n[nH]1` [bis-(4-fluoro-phenyl)-[4-(5-methyl-1H-pyrazol-3-ylamino)-quinazolin-2-yl]-methanol] it was “A (A ≦ 0.3)”; in that of “(4-(1H-pyrazol-3-ylamino)quinazolin-2-yl)bis(4-fluorophenyl)methanol [Example 48]”, “A (A ≦ 0.3)”.
